Data as given in PubChem BioAssay AID743454 (Peter MacCallum Cancer Centre, 2014)

Aim: 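Genes whose loss kills vorinostat-resistant colon cancer cells under vorinostat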 (primary screen)
Cell system: human HCT116-VR colon cancer cells, selected for vorinostat resistance
Reagent: siRNA pool against human genes, 40 nM siRNA pool
Timing: vorinostat for 24 h, read-out about 72 h after transfection
Challenge: vorinostat at 2.5 µM final
Measured: 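Two measures, CellTiter-Fluor viability and luminescent caspase 3/7 activity, each as fold change against same-plate mock wells, mean of duplicates, then screen-wide robust z-score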
Direction: viability robust z-score: higher = more viable cells than screen typical; caspase robust z-score: higher = more caspase 3/7 activity than screen typical
Active means: 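a knock-down is a hit when classed RV1 or RV2 for lowered viability, or CA1 or CA2 for caspase activation; those lethal without drug were dropped; hits were retested singly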
In all, the deposit lists about 18,000 reagents; shown is an unselected part. 450 of all reagents (2.5%) were called active. 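Single biological run; no consistent viability z cut-off exists, so the class columns, not z-scores, define the calls.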

no.	target gene	viability hit class	caspase hit class	viability robust z-score	caspase robust z-score	activity call
1	OR4D1 (GeneID 26689)	no change	no change	-0.24	0.4	inactive
2	CNOT6 (GeneID 57472)	no change	no change	-1.6	1.06	inactive
3	SHISAL2A (GeneID 348378)	no change	no change	-0.22	-0.62	inactive
4	PATJ (GeneID 10207)	no change	no change	1.81	-0.27	inactive
5	HLA-DRA (GeneID 3122)	no change	no change	0.83	-0.44	inactive
6	RFTN2 (GeneID 130132)	no change	no change	0.89	-0.49	inactive
7	RORC (GeneID 6097)	no change	no change	-0.18	0.06	inactive
8	KIFAP3 (GeneID 22920)	no change	no change	-0.09	0.64	inactive
9	SKIDA1 (GeneID 387640)	no change	no change	-0.02	0.08	inactive
10	SEMA5B (GeneID 54437)	no change	no change	-0.2	-1.18	inactive
11	PKHD1L1 (GeneID 93035)	no change	no change	0.2	-0.84	inactive
12	UHRF1 (GeneID 29128)	no change	no change	0.08	-0.34	inactive
13	SLC12A7 (GeneID 10723)	no change	no change	-0.86	-0.52	inactive
14	TMEM41A (GeneID 90407)	no change	no change	-1.23	3.2	inactive
15	STMN1 (GeneID 3925)	no change	no change	-0.66	0.31	inactive
16	ZFP3 (GeneID 124961)	no change	no change	0.72	0.05	inactive
17	KRTAP4-2 (GeneID 85291)	no change	no change	0.32	0.76	inactive
18	ROCK1 (GeneID 6093)	no change	no change	0.28	-0.16	inactive
19	HAUS4 (GeneID 54930)	no change	no change	-1.92	1.67	inactive
20	IFNA7 (GeneID 3444)	no change	no change	-0.35	0.1	inactive
21	NDFIP2 (GeneID 54602)	no change	no change	1.07	-0.56	inactive
22	MAN2B2 (GeneID 23324)	no change	no change	1.44	-1.15	inactive
23	LGALS1 (GeneID 3956)	no change	no change	-1.03	-0.45	inactive
24	PGRMC1 (GeneID 10857)	no change	no change	0.01	-0.07	inactive
25	SPSB3 (GeneID 90864)	RV2 (reduced viability)	no change	-3.25	-0.95	active
26	VAT1L (GeneID 57687)	no change	no change	-0.42	-0.22	inactive
27	RALGAPB (GeneID 57148)	no change	no change	1.68	-0.11	inactive
28	ARL10 (GeneID 285598)	no change	no change	-0.24	-0.94	inactive
29	KCNN2 (GeneID 3781)	no change	no change	-0.02	-0.34	inactive
30	CYTIP (GeneID 9595)	no change	no change	0.67	4.36	inactive
31	BICRAL (GeneID 23506)	no change	no change	0.09	-0.5	inactive
32	LARP4 (GeneID 113251)	no change	no change	1.21	-0.22	inactive
33	TMEM196 (GeneID 256130)	no change	no change	0.64	-0.34	inactive
34	CYP2U1 (GeneID 113612)	no change	no change	-0.32	1.56	inactive
35	AMACR (GeneID 23600)	no change	no change	-0.82	-0.13	inactive
36	KRTAP4-1 (GeneID 85285)	no change	no change	-1.54	2.73	inactive
37	ZNF394 (GeneID 84124)	no change	no change	-0.5	0.72	inactive
38	NADK2 (GeneID 133686)	no change	no change	-0.93	-0.52	inactive
39	OTOP2 (GeneID 92736)	no change	no change	1.53	-0.4	inactive
40	SDHAF1 (GeneID 644096)	no change	no change	-0.41	-1.02	inactive
41	HMHB1 (GeneID 57824)	no change	no change	-0.32	-1.55	inactive
42	MKLN1 (GeneID 4289)	no change	no change	-0.24	0.03	inactive
43	COLQ (GeneID 8292)	no change	no change	-0.51	-0.43	inactive
44	AQP8 (GeneID 343)	no change	no change	0.15	-0.18	inactive
45	NAXE (GeneID 128240)	no change	no change	0.3	-0.72	inactive
46	PPAN (GeneID 56342)	no change	no change	-2.66	0.78	inactive
47	COL9A3 (GeneID 1299)	no change	no change	-2.28	0.06	inactive
48	CITED2 (GeneID 10370)	no change	no change	0.55	0.88	inactive
49	FBXO41 (GeneID 150726)	no change	no change	-0.62	-0.36	inactive
50	UBC (GeneID 7316)	RV2 (reduced viability)	no change	-6.8	-0.79	active
51	TSPAN7 (GeneID 7102)	no change	no change	0.82	0.48	inactive
52	KCND3 (GeneID 3752)	no change	no change	-0.52	-0.14	inactive
53	DEFA5 (GeneID 1670)	no change	no change	0.55	-0.4	inactive
54	CCIN (GeneID 881)	no change	no change	-0.98	2.89	inactive
55	KIAA2012 (GeneID 100652824)	no change	no change	-0.66	-1.15	inactive
56	STAG3 (GeneID 10734)	no change	no change	0.38	0.4	inactive
57	DPM3 (GeneID 54344)	no change	no change	-1.21	1.34	inactive
